In patent US6103872, “CAPON: a protein associated with neuronal nitric oxide synthase” (The Johns Hopkins University, dated 2000):

Target: GST (control) (Schistosoma japonicum (Blood fluke), UniProt P08515 = GST)
Assay: GST pull-down from cerebellar lysates, Western blot with anti-CAPON

B1: rat brain CAPON (endogenous, cerebellar supernatant) (other)
chain: MPSKTKYNLVDDGHDLRIPLHNEDAFQHGISFEAKYVGSLDVPRPNSRVEIVAAMRRIRYEFKAKNIKKKKVSIMVSVDGVKVILKKKKKKKEWTWDESKMLVMQDPIYRIFYVSHDSQDLKIFSYIARDGASNIFRCNVFKSKKKSQAMRIVRTVGQAFEVCHKLSLQHTQQNADGQEDGESERNSDGSGDPGRQLTGAERVSTATAEETDIDAVEVPLPGNDILEFSRGVTDLDAIGKDGGSHIDTTVSPHPQEPMLAASPRMLLPSSSSSKPPGLGTGTPLSTHHQMQLLQQLLQQQQQQTQVAVAQVHLLKDQLAAEAAARLEAQARVHQLLLQNKDMLQHISLLVKQVQELELKLSGQSTMGSQDSLLEITFRSGALPVLCESTTPKPEDLHSPLLGAGLADFAHPVGSPLGRRDCLVKLECFRFLPAEDNQPMAQGEPLLGGLELIKFRESGIASEYESNTDESEERDSWSQEELPRLLNVLQRQELGDSLDDEIAV
B1: no binding.
